The values that follow come from the supplement of paper PMC4604168 (melanoma cell lines).

Each structure is given as a SMILES string. This is one part of the list. Single values are uncertain, as repeats are few or missing.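 Imaging used 1,536-well plates; nuclei positive for cleaved PARP by antibody were divided by total DNA-stained nuclei to yield the apoptosis fraction. Doses for screening kept most cells viable, and cell lines differ markedly in resting and induced cleaved-PARP levels.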

The test system of this assay is A2058. Nature of the assay: cleaved PARP positive nuclei fraction relative to DMSO control; melanoma cells; higher = more apoptosis. As to conditions: library dose: low library concentration; 72 h.
Turning to `C[C@]1(O)C[C@@H](c2nc(-c3ccc4ccc(-c5ccccc5)nc4c3)c3c(N)nccn32)C1` + C[C@@H]1CCN(C(=O)CC#N)C[C@@H]1N(C)c1ncnc2[nH]ccc12 [CP690550] (first compound 0.4 µM, partner dose 1 µM), the “cleaved PARP positive nuclei fraction” value was 48.1%.

`Cn1sc(=O)n(Cc2ccccc2)c1=O` + NCC(=O)Nc1ccc(-n2nc(C(F)(F)F)cc2-c2ccc3c(ccc4ccccc43)c2)cc1 [OSU03012] (first compound 0.4 µM, partner dose 1 µM): the “cleaved PARP positive nuclei fraction” value worked out at 66.8%.

As to `Cn1sc(=O)n(Cc2ccccc2)c1=O` + COc1cc2ncnc(Nc3ccc(Oc4ccccc4)cc3)c2cc1OC [SrcI1] (first compound 0.4 µM, partner dose 2 µM), the “cleaved PARP positive nuclei fraction” value amounted to 63.5%.

As for `Cn1cnc2c(F)c(Nc3ccc(Br)cc3Cl)c(C(=O)NOCCO)cc21` [selumetinib] + Oc1nc(-c2ccc(C(F)(F)F)cc2)nc2c1CSCC2 [XAV939] (first compound 0.015 µM, partner dose 2 µM), the “cleaved PARP positive nuclei fraction” value stood at 116%.

In the case of `CCCCCCCCc1ccc(CCC(N)(CO)CO)cc1` [fingolimod] + O=C(CCCCCCC(=O)Nc1ccccc1)NO [vorinostat] (first compound 2 µM, partner dose 0.08 µM), the “cleaved PARP positive nuclei fraction” value was 39.6%.

For the molecule `NC1(c2ccc(-c3nc4ccn5c(=O)[nH]nc5c4cc3-c3ccccc3)cc2)CCC1` + COc1cc2ncnc(Nc3ccc(Oc4ccccc4)cc3)c2cc1OC [SrcI1] (first compound 0.4 µM, partner dose 2 µM), the “cleaved PARP positive nuclei fraction” value worked out at 118%.
